From article doi:10.1101/117952
Results are given in words; binding and its absence hold for the method and conditions named. In cells and extracts the contact can be indirect. These calls come from enrichment with a bait or labelling near it, and not all partners need be listed.

The chains behind the UniProt entries cited, without tags or fusion partners.
UniProt Q62205, whole entry: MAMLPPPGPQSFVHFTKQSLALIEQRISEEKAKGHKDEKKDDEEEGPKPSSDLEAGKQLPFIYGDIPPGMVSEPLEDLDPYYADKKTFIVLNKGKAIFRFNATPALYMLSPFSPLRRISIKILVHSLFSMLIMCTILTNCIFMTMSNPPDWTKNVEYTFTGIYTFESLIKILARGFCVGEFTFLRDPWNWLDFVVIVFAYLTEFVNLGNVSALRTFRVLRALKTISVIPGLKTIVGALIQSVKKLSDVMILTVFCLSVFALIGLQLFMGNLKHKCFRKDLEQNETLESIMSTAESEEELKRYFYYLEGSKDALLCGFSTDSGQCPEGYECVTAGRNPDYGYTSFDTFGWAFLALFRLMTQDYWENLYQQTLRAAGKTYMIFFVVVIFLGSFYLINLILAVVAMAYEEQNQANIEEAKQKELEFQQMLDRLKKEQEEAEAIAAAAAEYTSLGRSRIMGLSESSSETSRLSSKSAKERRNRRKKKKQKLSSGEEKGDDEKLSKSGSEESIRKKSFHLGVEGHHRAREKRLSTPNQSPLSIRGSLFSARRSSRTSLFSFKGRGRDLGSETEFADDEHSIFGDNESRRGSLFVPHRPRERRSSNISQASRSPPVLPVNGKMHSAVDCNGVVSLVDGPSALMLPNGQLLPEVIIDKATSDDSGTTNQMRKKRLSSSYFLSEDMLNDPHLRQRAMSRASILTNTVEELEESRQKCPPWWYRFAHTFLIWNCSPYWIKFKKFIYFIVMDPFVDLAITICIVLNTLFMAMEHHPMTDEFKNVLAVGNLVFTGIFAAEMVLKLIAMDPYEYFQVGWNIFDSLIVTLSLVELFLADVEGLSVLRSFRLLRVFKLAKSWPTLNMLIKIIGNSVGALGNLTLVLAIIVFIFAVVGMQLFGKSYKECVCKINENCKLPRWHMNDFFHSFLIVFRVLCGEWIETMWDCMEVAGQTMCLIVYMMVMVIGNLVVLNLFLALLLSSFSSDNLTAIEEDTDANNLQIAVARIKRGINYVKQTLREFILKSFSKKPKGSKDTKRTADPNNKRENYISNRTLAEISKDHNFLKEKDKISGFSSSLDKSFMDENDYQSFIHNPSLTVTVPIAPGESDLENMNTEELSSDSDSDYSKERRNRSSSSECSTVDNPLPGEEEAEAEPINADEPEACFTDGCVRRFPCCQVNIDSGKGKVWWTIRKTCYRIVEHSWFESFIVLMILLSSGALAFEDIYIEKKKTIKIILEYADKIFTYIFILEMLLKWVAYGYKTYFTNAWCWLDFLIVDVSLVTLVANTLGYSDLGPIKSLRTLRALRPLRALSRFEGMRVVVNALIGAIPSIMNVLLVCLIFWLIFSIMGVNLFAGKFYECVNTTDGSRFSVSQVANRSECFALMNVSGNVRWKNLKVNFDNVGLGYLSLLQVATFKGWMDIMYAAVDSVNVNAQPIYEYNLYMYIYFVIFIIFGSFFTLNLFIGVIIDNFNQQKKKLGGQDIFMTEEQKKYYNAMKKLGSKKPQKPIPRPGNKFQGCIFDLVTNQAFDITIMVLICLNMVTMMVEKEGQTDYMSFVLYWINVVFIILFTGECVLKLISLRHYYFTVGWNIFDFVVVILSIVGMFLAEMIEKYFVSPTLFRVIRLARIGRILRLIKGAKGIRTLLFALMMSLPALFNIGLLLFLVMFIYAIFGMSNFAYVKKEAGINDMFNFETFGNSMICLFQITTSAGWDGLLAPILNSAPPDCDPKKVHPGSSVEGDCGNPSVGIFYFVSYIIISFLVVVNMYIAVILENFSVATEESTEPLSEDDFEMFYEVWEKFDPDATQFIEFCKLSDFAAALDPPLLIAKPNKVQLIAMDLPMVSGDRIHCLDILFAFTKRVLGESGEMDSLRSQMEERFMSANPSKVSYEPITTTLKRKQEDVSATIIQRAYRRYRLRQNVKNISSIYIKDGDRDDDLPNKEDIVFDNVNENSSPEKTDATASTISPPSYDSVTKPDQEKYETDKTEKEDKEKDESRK

Target: Epitope-tagged Nav1.7 (voltage-gated sodium channel Nav1.7, TAP-tagged) (mouse) (UniProt Q62205)
Assay: affinity purification with mass spectrometry

B1: Gprin1 (protein, UniProt Q3UNH4 1-932)
chain: MRDCCSSPKAIPAPPRHALDQSLGMDPRHTSSSGAAEGASCSERPAGSLACPSPNCSPLPETPRAHGALTSDNSGTTLFGKPEPMSSAEATPTASEIRNPVFSGKMDGNSLKQADSTSTRKEEAGSLRNEESMLKGKAEPMIYGKGEPGTVGRVDCTASGAENSGSLGKVDMPCSSKVDIVSPGGDNAGSLRKVETISSGKMDPKTENVMHSRRERPGSTGEGDLVSLRENDMKPPDNTDSASTKKTDPEFSGKLTPGSSGKTELVSSVTVAPVTSENVNPVCSGGAGPAAVGNSETLSSVKKDPQLLGKKEAVSSGEGGSVSVRMAETVSARQPEGMFPAKTDSTSSNSTGPSGRADPVSLRNSELVSPVKPERLSSGQAERVSLVKTETLSSGKEDPRSSRRVDHTTVTGNMQTSQKGNPESSGKTDLGSSSSGDTRSLGTWGSLSAAKAEVTEGKGDPQPWKKASLPASEKTDPLASSKAGSASQGKAETVSPGEVDAMTLGKTVPTSSGKTALVSPGKVDLMTSERAEGIPELQASEKGNPVNSTRVDTGATGSTEPKSGVKVITQIPGATSPGKVETPSLQKEQPQLSEKTDPSRKVDPPTTVEPVSLGKADSASPSPRKAESQTSAKTVPQAPDKATSSLRQSDGTPYSSAQPQRDTRSIGSLPEREPSASTSQKDLAAAAAQKSPSAEAAAPPPGPRTRDNFTKAPSWDAGAPPPREDAGTQAGAQACVSVAVSPMSPQDGAGGPAFSFQAAPRAPSPAPRPPSRRDAGLQVSLGAAETRSVATGPMTPQAAAPPAVPPVFPEVRVRPGSVLAAALAPQEATEPVRDVSWDEKGMTWEVYGASMEVEVLGMAIQKHLERQIEEHGRQGAPAPAPPPAVRAGPGRAGSVRTAPAEGAAKRPPGLFRALLQSVRRPRCCSRAGPTAE
B1 was tested, and the binding was “binds”.
